In article PMC9205131:
These are yes or no findings as the source states them, for the method shown. In cells and extracts the contact can be indirect. Some results given as binding are weak or reduced against the parent protein; the word gives no strength. Each block holds one substance with its values, some of them ahead of it.

By UniProt entry, the sequences of proteins in these tests, tags left out.
UniProt P09874: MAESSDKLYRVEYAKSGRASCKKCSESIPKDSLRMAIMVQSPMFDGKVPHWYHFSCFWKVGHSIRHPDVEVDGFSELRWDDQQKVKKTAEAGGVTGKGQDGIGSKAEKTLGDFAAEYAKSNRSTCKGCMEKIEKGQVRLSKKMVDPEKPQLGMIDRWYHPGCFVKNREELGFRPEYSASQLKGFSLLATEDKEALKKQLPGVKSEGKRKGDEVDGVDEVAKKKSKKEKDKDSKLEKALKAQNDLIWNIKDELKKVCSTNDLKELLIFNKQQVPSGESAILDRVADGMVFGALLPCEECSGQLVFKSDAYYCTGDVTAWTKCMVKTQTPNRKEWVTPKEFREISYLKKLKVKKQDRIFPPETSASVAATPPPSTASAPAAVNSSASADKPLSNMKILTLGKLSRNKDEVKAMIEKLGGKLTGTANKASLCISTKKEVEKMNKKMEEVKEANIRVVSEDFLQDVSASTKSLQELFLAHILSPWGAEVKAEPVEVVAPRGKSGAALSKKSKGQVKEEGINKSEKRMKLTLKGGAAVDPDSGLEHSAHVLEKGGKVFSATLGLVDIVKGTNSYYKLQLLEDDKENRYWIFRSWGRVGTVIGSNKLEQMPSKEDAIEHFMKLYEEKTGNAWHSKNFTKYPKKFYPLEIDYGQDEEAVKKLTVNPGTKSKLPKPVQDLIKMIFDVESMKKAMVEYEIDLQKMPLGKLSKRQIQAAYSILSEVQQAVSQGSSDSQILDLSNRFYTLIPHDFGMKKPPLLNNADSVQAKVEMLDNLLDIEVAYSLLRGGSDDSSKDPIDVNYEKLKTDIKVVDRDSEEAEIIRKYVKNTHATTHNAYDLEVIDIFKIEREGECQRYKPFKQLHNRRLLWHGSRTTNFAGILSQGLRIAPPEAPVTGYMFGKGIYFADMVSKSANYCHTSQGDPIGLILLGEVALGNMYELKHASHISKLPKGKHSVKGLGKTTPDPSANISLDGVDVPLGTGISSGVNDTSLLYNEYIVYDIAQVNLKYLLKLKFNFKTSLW

Legend:
YFP-p53 = YFP-p53 (UniProt P04637); assay: co-IP; exogenous co-immunoprecipitation from HEK293T cells transfected with YFP-p53 and EGFP-SIRT6; Western blot
[1] = target: SIRT6 (human (endogenous in HCT116)) (UniProt Q8N6T7); assay: co-IP; endogenous co-immunoprecipitation from HCT116 cell lysate; about 6 ug of p53 antibodies to 1 ml lysate, 2 h at ambient temperature, protein A-agarose, 5 washes, Western blot
[2] = target: p53 (human (endogenous in HCT116)) (UniProt P04637); assay: as above

binding (YFP-p53): binds
Substance: EGFP-SIRT6 (from UniProt Q8N6T7 1-355)

binding [1]: binds
Substance: Poly [ADP-Ribose] polymerase 1 (from UniProt P09874 1-1014)

binding [2]: binds
Substance: SIRT6 (from UniProt Q8N6T7 1-355)
